The record followed here is article PMC7829778, “Optimization of 1,4-Naphthoquinone Hit Compound: A Computational, Phenotypic, and In Vivo Screening against Trypanosoma cruzi” (Molecules, 2021).

Common to all, as to type: cell-based, Trypanosoma cruzi
Data set [1] deals with T. cruzi trypomastigotes Dm28c-Luc. The experiment in a line: Trypanocidal activity against trypomastigotes, Dm28c-Luc clone (luciferase). The following applies: SI = CC50 Vero cells/IC50 trypomastigote forms. The method, then: (§1) T. cruzi Dm28c-Luc clone, genetically modified to express firefly luciferase, and Y strain were used in the drug screening assay. Vero cells were infected with T. cruzi, Dm28c-Luc or Y strain, in a 10:1 parasites/host cell ratio and maintained at 37 °C in humidified atmosphere of 5% CO2. Trypomastigotes were harvested from the infected culture supernatant on the 4th day post-infection (dpi) followed by quantification of the number of parasites/mL in Neubauer chamber.
(§2) Screening of the compounds was performed against trypomastigotes and intracellular amastigote forms. Trypomastigotes (1 × 10^6 parasites/well), Dm28c-Luc clone and Y strain, were incubated for 24 h at 37 °C with the 1,4 naphthoquinone derivatives and Bz (0.41–100 μM) and their viability determined by the activity of the luciferase enzyme, after addition of luciferin substrate (300 μg/mL), or CellTiter Glo. The luminescent signal was detected on the FlexStation 3 reader.

In data set [2] the test system is T. cruzi trypomastigotes Y strain. The experiment in a line: Trypanocidal activity against trypomastigotes, Y strain (CellTiter Glo). The following applies: SI = CC50 Vero cells/IC50 trypomastigote forms. The method, then:
as §1, §2
Background: ATP-based viability assays read luminescence as a measure of living cells.

Data set [3] deals with intracellular amastigotes of T. cruzi (Dm28c-Luc clone). The experiment in a line: Luminescent screening against intracellular amastigotes in infected Vero cells. The following applies: SI = CC50 Vero cells/IC50 of amastigote forms. The method, then:
as §1
The effect of the compounds against intracellular amastigotes was screened in 72 h T. cruzi-infected Vero cells. Briefly, Vero cells seeded (1.5 × 10^4 cells/well) on 96-well white plate infected with trypomastigotes (Dm28c-Luc) at a 10:1 multiplicity of parasites/cell. After 24 h of infection, the cultures were washed with PBS and then, treated for 72 h at 37 °C with naphthoquinone derivatives and Bz (0.41–100 µM). After treatment, luciferin (300 µg/mL) was added to the culture and the viability of the parasites was assessed by reading the luminescent signal using the FlexStation 3 reader. Controls were also performed in no-toxic concentrations of DMSO (≤1%).

Each structure is given as a SMILES string. Where “and” joins values, the source holds several entries; their conditions need not be identical. Equal entries are not always repeated.

Consider `O=C(Cn1ccnc1[N+](=O)[O-])NCc1ccccc1` [Bz, benznidazole, reference compound], for which the “SI Trypomastigotes Dm28c-Luc” value in data set [1] is given as over 28.6. Further, the “SI Trypomastigotes Y” value in data set [2] was over 34.9. Also, the SI in data set [3] is over 357.

Turning to `O=C1C(O)=C(C(Sc2ccc(Cl)cc2)c2ccc(Cl)cc2)C(=O)c2ccccc21` (stereo not shown) [Compound 1a, 2-((4-chlorophenyl)((4-chlorophenyl)thio)methyl)-3-hydroxynaphthalene-1,4-dione], in data set [1], the “SI Trypomastigotes Dm28c-Luc” value came to 4.8. Moreover, the “SI Trypomastigotes Y” value in data set [2] is recorded as 15.0. Also, the SI in data set [3] came to 7.0.

In the case of `O=C1C(O)=C(C(Sc2ccc(Cl)cc2)c2ccccc2Cl)C(=O)c2ccccc21` (stereo not shown) [Compound 1c, 2-((2-chlorophenyl)((4-chlorophenyl)thio)methyl)-3-hydroxynaphthalene-1,4-dione], the “SI Trypomastigotes Dm28c-Luc” value in data set [1] is reported as 5.1. In data set [2], the “SI Trypomastigotes Y” value was 10.2. Also, in data set [3], the SI came to 4.7.

`O=C1C(O)=C(C(Sc2ccc(Cl)cc2Cl)c2ccccc2)C(=O)c2ccccc21` (stereo not shown) [Compound 1d, 2-(((2,4-dichlorophenyl)thio)(phenyl)methyl)-3-hydroxynaphthalene-1,4-dione]: in data set [1], the “SI Trypomastigotes Dm28c-Luc” value stood at 8.9. Moreover, the “SI Trypomastigotes Y” value in data set [2] came to 29.3. In addition, the SI in data set [3] amounted to 6.2.

For `O=C1C(O)=C(C(Sc2ccc(Cl)cc2)c2cn(-c3cc(Cl)cc(Cl)c3)nn2)C(=O)c2ccccc21` (stereo not shown) [Compound 1e, 2-(((4-chlorophenyl)thio)(1-(3,5-dichlorophenyl)-1H-1,2,3-triazol-4-yl)methyl)-3-hydroxynaphthalene-1,4-dione], the “SI Trypomastigotes Dm28c-Luc” value in data set [1] is 7.5. The “SI Trypomastigotes Y” value in data set [2] is 7.2. This compound showed an SI in data set [3] of 3.7.

Turning to `COc1ccc(C(Sc2ccc(Cl)cc2)C2=C(O)C(=O)c3ccccc3C2=O)cc1` (stereo not shown) [Compound 1g, 2-(((4-chlorophenyl)thio)(4-methoxyphenyl)methyl)-3-hydroxynaphthalene-1,4-dione], the SI in data set [3] was > 10 and 14.9.

With `COc1ccc(C(Sc2ccccc2C)C2=C(O)C(=O)c3ccccc3C2=O)cc1` (stereo not shown) [Compound 2b, 2-Hydroxy-3-((4-methoxyphenyl)(o-tolylthio)methyl) naphthalene-1,4-dione], in data set [1], the “SI Trypomastigotes Dm28c-Luc” value turned out to be 1.7. Moreover, the “SI Trypomastigotes Y” value in data set [2] is 1.5. Moreover, in data set [3], the SI is listed as 3.9.

As for `COc1ccc(C(Sc2ccc(F)cc2)C2=C(O)C(=O)c3ccccc3C2=O)cc1` (stereo not shown) [Compound 2e, 2-(((4-fluorophenyl)thio)(4-methoxyphenyl)methyl)-3-hydroxynaphthalene-1,4-dione], in data set [1], the “SI Trypomastigotes Dm28c-Luc” value was found to be 1.9. Also, the “SI Trypomastigotes Y” value in data set [2] worked out at 2.3. Moreover, the SI in data set [3] was 7.0.

Consider `COc1ccc(C(Sc2ccc3ccccc3c2)C2=C(O)C(=O)c3ccccc3C2=O)cc1` (stereo not shown) [Compound 2h, 2-Hydroxy-3-((4-methoxyphenyl)(naphthalen-2-ylthio)methyl) naphthalene-1,4-dione], for which the “SI Trypomastigotes Dm28c-Luc” value in data set [1] was found to be 2.9. Moreover, the “SI Trypomastigotes Y” value in data set [2] is recorded as 2.5. This compound had an SI in data set [3] of 2.8.
